Assay results taken from doi:10.1101/2023.12.13.571423.
These are yes or no findings as the source states them, for the method shown. Binding can be weak; no strength is given. Sequences can lack the tags named with a protein.

Biological target: AtURI fused to the GAL4 DNA binding domain (Arabidopsis thaliana)
Experiment: two-hybrid

binding: binds
B1: PFD6 fused to the Gal4 activation domain (protein, UniProt Q2HIK4 1-129)
chain: MSSSTVRDLQRDLENKANDLGKIQKDIGKNHQLRKKYTIQLGENELVLKELDLLEEDANVYKLIGPVLVKQDLAEANANVRKRIEYISAELKRLDAILQDMEEKQNNKRETIMKLQQRLQTIQAGKAKA
